Results taken from patent US20130323813, “PEPTIDES FOR THE SPECIFIC BINDING OF RNA TARGETS” (THE UNIVERSITY OF WESTERN AUSTRALIA, published 2013).
Positions count from the first letter of the chain named. For part of these data: Weaker means in comparison with the reference protein, sequence or condition of that experiment. Protein sequences can lack the tags named with them. For part of these data: Where cells or extracts were used, other partners may take part. For part of these data: Construct, isoform or probe ends are uncertain for at least one entry.

Legend:
[1] = target: T1, PUM1 PUF CR (repeat 6 Cys12/Arg16) (Homo sapiens) (UniProt Q14671); assay: EMSA; conditions: striking specificity shift stated; purified recombinant protein; label: 5'-fluorescein
T1 sequence: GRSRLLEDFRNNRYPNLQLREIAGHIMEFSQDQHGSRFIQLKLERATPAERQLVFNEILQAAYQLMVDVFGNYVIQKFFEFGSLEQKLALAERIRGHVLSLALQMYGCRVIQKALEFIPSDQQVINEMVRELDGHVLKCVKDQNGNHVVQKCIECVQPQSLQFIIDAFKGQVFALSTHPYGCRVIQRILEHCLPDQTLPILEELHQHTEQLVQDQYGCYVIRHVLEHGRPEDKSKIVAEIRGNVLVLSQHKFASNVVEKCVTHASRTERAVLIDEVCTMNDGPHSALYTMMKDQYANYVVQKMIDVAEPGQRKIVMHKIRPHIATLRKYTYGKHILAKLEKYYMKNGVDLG

[2] = target: T2, PUM1 PUF GR (repeat 6 Gly12/Arg16) (Homo sapiens) (UniProt Q14671); assay: EMSA; conditions: striking specificity shift stated; purified recombinant protein; label: 5'-fluorescein
T2 sequence: T1 sequence with C218G

[3] = target: T3, PUM1 PUF domain wild type (NQ) (Homo sapiens) (UniProt Q14671); assay: EMSA; conditions: 10 mM HEPES pH 8.0, 50 mM KCl, 1 mM EDTA, RT; purified recombinant protein; label: 5'-fluorescein
T3 sequence: T1 sequence with C218N, R222Q

[4] = target: T4, PUM1 PUF GR repeat 5 (Homo sapiens) (UniProt Q14671); assay: one hybrid; conditions: yeast three-hybrid; higher affinity than wild-type NRE; protein in cells; protein details: Gal4 activation domain fusion; variant of NRE
T4 sequence: T1 sequence with C182G, Q186R, C218N, R222Q

[5] = target: T5, PUM1 PUF GR repeat 7 (Homo sapiens) (UniProt Q14671); assay: one hybrid; conditions: yeast three-hybrid; higher affinity than wild-type NRE; protein in cells; protein details: Gal4 activation domain fusion; variant of NRE
T5 sequence: T1 sequence with C218N, R222Q, S254G, E258R

[6] = target: T6, PUM1 PUF GR repeat 8 (Homo sapiens) (UniProt Q14671); assay: one hybrid; conditions: yeast three-hybrid; higher affinity than wild-type NRE; protein in cells; protein details: Gal4 activation domain fusion; variant of NRE
T6 sequence: T1 sequence with C218N, R222Q, N297G, Q301R

AUUGUAUAUA [NRE (Fl)]
binding result [1]: binds more weakly | binding result [2]: binds more weakly | binding result [3]: binds

CCGGCUAGCAAUUGUCUAUAUUAAUUUAAUAAAGCAUG [NREA4C]
binding result [4]: binds

CCGGCUAGCAAUUCUAUAUAUUAAUUUAAUAAAGCAUG [NREG2C]
binding result [5]: binds

CCGGCUAGCAAUCGUAUAUAUUAAUUUAAUAAAGCAUG [NREU1C]
binding result [6]: binds
